PubChem BioAssay AID1224828, NIAID – 2016
Assay: 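Knock-downs that increase or decrease LPS-induced p65 nuclear translocation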 (primary screen). Cells: mouse RAW264.7 G9 macrophage reporter cells (GFP-p65, Tnf promoter-mCherry). Knock-down reagent: siRNA pool against mouse genes, 100 nM. Timing: 2 days siRNA transfection, then 40 min LPS before fixation. Challenge: LPS (Salmonella minnesota R595) at 10 ng/ml. Read-out: 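Imaged p65 nuclear translocation ratio, normalised to the plate median, converted to robust z-scores and averaged across two replicates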. Reading the numbers: p65 translocation robust z-score: higher = more nuclear NF-kappaB p65 after LPS than the plate median; nuclear/cytoplasmic p65 ratio: higher = more nuclear NF-kappaB p65. Rule for the call: 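Active if robust z is above 3.3 (negative regulators) or below -1.56, the Tlr4 control median (positive regulators); activity score 50 or more; control wells not called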. Calls: active = hit (p65 shift raised or lowered); inactive = no clear change.
The deposit covers about 17,000 reagents; this is a random part of them. 762 of all reagents (4.5%) count as active. 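Active calls include both raised and lowered p65 entry, mostly lowered; wells with fewer than 50 cells lack a z-score.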 The raw values are shown without normalisation. A number with no mark means an inactive call.

Gene	p65 translocation robust z-score	nuclear/cytoplasmic p65 ratio, rep 1	nuclear/cytoplasmic p65 ratio, rep 2	low cell count flag
Cpm	-0.77	1.39	1.6	enough cells to score
Tmem74b	-0.29	1.49	1.65	enough cells to score
Lrrc31	-0.43	1.43	1.28	enough cells to score
Prl7c1	0.05	1.41	1.2	enough cells to score
Aplf	-0.16	1.43	1.29	enough cells to score
Kat2a		1.31	1.22	fewer than 50 cells per well; well left out of scoring
Gmeb1	-1.02	1.22	1.32	enough cells to score
Dsc2	-0.74	1.53	1.27	enough cells to score
Pdgfrb	-0.35	1.55	1.4	enough cells to score
Zfp729a	0.45	1.46	1.57	enough cells to score
Sspo	1.03	1.53	1.35	enough cells to score
Rab3c	1.51	1.61	1.35	enough cells to score
Dpysl4		1.42	1.24	fewer than 50 cells per well; well left out of scoring
Ice2	1.82	1.68	1.58	enough cells to score
Otp		1.1	1.21	fewer than 50 cells per well; well left out of scoring
Mageb2	0.34	1.8	1.57	enough cells to score
Tdp1	-0.04	1.49	1.72	enough cells to score
Oprk1		1.54	1.47	fewer than 50 cells per well; well left out of scoring
Tspo	1.12	1.78	1.78	enough cells to score
Bdp1	-0.9	1.29	1.28	enough cells to score
Idi1	0.72	1.46	1.54	enough cells to score
Gsc2	-1.31	1.27	1.19	enough cells to score

Copied from the listing (3 entries):
Gene	p65 translocation robust z-score	nuclear/cytoplasmic p65 ratio, rep 1	nuclear/cytoplasmic p65 ratio, rep 2	low cell count flag
Cpm	-0.77	1.39	1.6	enough cells to score
Tmem74b	-0.29	1.49	1.65	enough cells to score
Lrrc31	-0.43	1.43	1.28	enough cells to score

Continued:
Gene	p65 translocation robust z-score	nuclear/cytoplasmic p65 ratio, rep 1	nuclear/cytoplasmic p65 ratio, rep 2	low cell count flag
Clptm1l	0.8	1.6	1.58	enough cells to score
Kcnd3	0.35	1.55	1.4	enough cells to score
Nradd	2.2	2.32	1.62	enough cells to score
Or1aa2	-1.09	1.39	1.33	enough cells to score
Gcm1	-0.35	1.35	1.36	enough cells to score
Anxa9	0.6	1.77	1.65	enough cells to score
Zfp300	-2.16 (active)	1.33	1.26	enough cells to score
Tmem47	-1.43	1.18	1.1	enough cells to score
Sgip1	-0.52	0.961	1.2	enough cells to score
Thy1	-0.22	1.47	1.5	enough cells to score
Zfp386	2.08	1.69	1.48	enough cells to score
Hacd4	1.7	1.57	1.7	enough cells to score
Zdhhc3		1.53	1.03	fewer than 50 cells per well; well left out of scoring
Dusp18	-0.3	1.47	1.31	enough cells to score
Fam174a		1.6	1.01	fewer than 50 cells per well; well left out of scoring
Or2ag16	0.35	1.55	1.31	enough cells to score
Zfand2a	1.19	1.48	1.75	enough cells to score
Naa50	1.68	2.03	1.75	enough cells to score
